Laboratory results reported in article PMC6813348.
These are yes or no findings as the source states them, for the method shown. Binding calls can cover weak binding; strength is not graded here.

Protein sequences, listed by entry. Tags and fused reporters are not part of them. Lines headed by an entry give the natural chain unless they say otherwise; changes in a name come on top.
UniProt P53286: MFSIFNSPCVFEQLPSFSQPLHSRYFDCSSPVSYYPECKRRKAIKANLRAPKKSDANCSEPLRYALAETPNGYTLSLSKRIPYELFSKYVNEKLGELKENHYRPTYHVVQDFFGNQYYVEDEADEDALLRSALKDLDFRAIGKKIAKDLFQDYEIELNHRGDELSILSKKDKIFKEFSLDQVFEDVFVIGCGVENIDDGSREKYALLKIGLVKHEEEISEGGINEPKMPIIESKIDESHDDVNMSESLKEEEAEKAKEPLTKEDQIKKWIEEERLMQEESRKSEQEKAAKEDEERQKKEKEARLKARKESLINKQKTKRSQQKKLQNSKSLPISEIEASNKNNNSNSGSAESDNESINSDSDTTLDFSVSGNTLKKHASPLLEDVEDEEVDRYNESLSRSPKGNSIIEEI
UniProt P25491: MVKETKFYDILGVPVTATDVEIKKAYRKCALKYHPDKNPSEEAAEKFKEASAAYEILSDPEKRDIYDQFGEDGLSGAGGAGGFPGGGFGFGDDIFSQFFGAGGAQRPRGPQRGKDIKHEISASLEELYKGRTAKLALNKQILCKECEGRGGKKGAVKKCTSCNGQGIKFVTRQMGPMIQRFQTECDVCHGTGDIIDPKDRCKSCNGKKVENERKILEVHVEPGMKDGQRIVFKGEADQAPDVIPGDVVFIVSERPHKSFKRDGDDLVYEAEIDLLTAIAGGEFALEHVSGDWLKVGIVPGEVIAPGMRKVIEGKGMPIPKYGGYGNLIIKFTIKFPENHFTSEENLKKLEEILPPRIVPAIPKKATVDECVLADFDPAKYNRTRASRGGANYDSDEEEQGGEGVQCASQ

B1: Sis1 (protein, UniProt P25294 1-352)
chain: MVKETKLYDLLGVSPSANEQELKKGYRKAALKYHPDKPTGDTEKFKEISEAFEILNDPQKREIYDQYGLEAARSGGPSFGPGGPGGAGGAGGFPGGAGGFSGGHAFSNEDAFNIFSQFFGGSSPFGGADDSGFSFSSYPSGGGAGMGGMPGGMGGMHGGMGGMPGGFRSASSSPTYPEEETVQVNLPVSLEDLFVGKKKSFKIGRKGPHGASEKTQIDIQLKPGWKAGTKITYKNQGDYNPQTGRRKTLQFVIQEKSHPNFKRDGDDLIYTLPLSFKESLLGFSKTIQTIDGRTLPLSRVQPVQPSQTSTYPGQGMPTPKNPSQRGNLIVKYKVDYPISLNDAQKRAIDENF

Biological target: Btn2 (S. cerevisiae) (UniProt P53286)
Test: pull-down; 1 μM of each protein in buffer A, 25 °C, 15 min; Btn2 isolated on Btn2-binder beads (Btn2 antibodies on NHS-sepharose), seven washes; SDS-PAGE with SYPRO-Ruby; both purified

| Molecule | binding |
| --- | --- |
| Ydj1 (from UniProt P25491 1-409) | no binding (tested: 1 μM) |
| B1 | binds |
